Measured values published in PubChem BioAssay AID2585 (National Center for Advancing Translational Sciences (NCATS), 2010).
Several values for one entry are separate records, joined by “and”; a condition that tells them apart may be missing. Equal entries are not always repeated. This list was built around the results that the source calls inconclusive (neither active nor inactive); the mix of calls is not that of the screen. Potencies of inconclusive entries are doubtful fits and often do not repeat. Activity calls are given as the source filed them. Calls follow the shape of the dose curve; as a rule, active = well fitted inhibition curve with a large enough effect; inconclusive = small, poorly fitted or top-dose-only effect; inactive = no such curve, though single readings can be large or run the other way.

Chains of the proteins cited; added tags and fusions are not shown. Lines headed by an entry give the natural chain unless they say otherwise; changes in a name come on top.
UniProt P54132: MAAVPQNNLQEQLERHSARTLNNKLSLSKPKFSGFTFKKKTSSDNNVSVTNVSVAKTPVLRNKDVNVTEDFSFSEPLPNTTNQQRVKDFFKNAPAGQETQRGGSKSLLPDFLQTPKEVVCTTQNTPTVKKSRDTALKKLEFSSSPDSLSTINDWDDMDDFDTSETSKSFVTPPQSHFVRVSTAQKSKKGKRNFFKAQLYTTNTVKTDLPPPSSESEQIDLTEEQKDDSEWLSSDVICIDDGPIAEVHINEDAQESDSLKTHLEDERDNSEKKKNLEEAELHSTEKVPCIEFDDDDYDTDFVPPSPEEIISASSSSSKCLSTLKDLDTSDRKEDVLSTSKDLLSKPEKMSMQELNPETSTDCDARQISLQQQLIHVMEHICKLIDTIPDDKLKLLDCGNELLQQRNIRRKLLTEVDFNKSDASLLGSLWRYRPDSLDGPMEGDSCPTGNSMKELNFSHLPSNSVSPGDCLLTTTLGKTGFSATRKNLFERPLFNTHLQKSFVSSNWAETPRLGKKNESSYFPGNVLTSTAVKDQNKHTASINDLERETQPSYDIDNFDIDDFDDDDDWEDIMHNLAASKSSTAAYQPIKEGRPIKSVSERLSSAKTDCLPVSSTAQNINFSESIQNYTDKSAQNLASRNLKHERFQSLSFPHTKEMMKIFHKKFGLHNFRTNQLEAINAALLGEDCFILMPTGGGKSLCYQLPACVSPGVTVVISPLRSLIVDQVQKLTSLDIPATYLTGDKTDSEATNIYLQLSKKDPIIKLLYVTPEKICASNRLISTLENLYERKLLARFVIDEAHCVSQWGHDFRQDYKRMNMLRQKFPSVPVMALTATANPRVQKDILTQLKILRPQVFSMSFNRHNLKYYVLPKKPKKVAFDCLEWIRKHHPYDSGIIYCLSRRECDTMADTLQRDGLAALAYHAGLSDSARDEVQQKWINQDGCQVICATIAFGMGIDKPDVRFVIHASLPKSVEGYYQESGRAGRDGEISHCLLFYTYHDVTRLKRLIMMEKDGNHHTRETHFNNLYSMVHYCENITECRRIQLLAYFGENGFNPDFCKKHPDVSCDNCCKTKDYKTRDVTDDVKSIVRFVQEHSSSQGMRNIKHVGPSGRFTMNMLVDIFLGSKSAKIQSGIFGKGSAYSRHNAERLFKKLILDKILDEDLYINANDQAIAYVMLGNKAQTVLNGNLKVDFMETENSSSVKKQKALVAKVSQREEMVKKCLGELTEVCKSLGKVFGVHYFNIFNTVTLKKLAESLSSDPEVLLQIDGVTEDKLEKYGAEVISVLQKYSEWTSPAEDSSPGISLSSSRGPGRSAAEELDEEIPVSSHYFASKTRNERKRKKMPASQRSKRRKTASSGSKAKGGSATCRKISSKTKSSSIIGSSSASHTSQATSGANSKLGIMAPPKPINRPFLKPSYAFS

molecular target: RecQ-like DNA helicase BLM (Homo sapiens) (UniProt P54132); experiment: qHTS Confirmation Assay for Inhibitors of Bloom's syndrome helicase (BLM); conditions: BLM DNA unwinding, fluorescence quenching, biochemical; also: nearly all actives have a fitted effect of over 45% in size
In short: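 Unwinding of a quencher-tagged forked DNA duplex (200 nM) with 2 mM ATP, after 15 min room-temperature compound preincubation with 50 nM BLM. Buffer: Tris-HCl pH 8.0, 2 mM MgCl2, poly(dI-dC) 2.5 ug/ml. Two red-fluorescence reads 2 h apart; DMSO and enzyme-free controls normalized.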
% is scaled to controls: 0 for no effect and ±100 for the full control effect; potency is read from the fitted curve at half-maximal effect.

Compound	max response, negative = inhibition	Potency
CCOc1ccc2[nH]c(=O)c(C(c3nnnn3Cc3ccco3)N3CCN(C)CC3)cc2c1 (stereo unspecified)	inactive: 3.02%	
O=C(COC(=O)c1c2c(nc3ccccc13)/C(=C/c1ccco1)CC2)NC1CCCC1		inconclusive: 8.13 µM [inhibitor, partial curve]
Oc1ccc(-c2cn3c(n2)SCC3)cc1O		inconclusive: 28.9 µM [inhibitor, single point]
COc1ccc(C(=O)C2CCCN(C(=O)CCc3scnc3C)C2)c(C)c1 (stereo unspecified)	inactive: 2.37%	
Nc1ccc2nc(-c3cc(Cl)c(N)c(Cl)c3)[nH]c2c1		inconclusive: 4.08 µM [inhibitor, partial curve, poor fit]
COc1ccc(N2Cc3cccc(C(=O)O)c3C2=O)cc1		active: 16.2 µM
N#C/C(=C\c1ccc(OC(=O)c2cccs2)cc1)c1nc2ccccc2[nH]1	inactive: -8.45%	
COC(=O)c1ccc(CSc2nc3scc(-c4cccs4)c3c(=O)[nH]2)o1		inconclusive: 32.4 µM [inhibitor, single point]
Cc1nc2cc(-c3ccsc3-n3c(C)ccc3C)[nH]n2c(=O)c1Cl		inconclusive: 32.4 µM [inhibitor, single point]
O=C(O)CSc1cc(C(=O)c2cc(F)ccc2O)cn2c(=O)c3c(-c4ccccc4)csc3nc12		inconclusive: 32.4 µM [inhibitor, single point]
O=c1[nH]c(Nc2ccc(F)cc2)cc2ccccc12		inconclusive: 14.5 µM [inhibitor, partial curve]
Cc1ccc(/C=c2\sc3nc(-c4ccco4)nn3c2=O)o1	inactive: -9.74%	
COc1ccc(C(=O)Nc2nnc(SCc3cc(=O)c4cc(C)cc(C)c4[nH]3)s2)cc1		active: 18.2 µM
CSc1nc(N(C)CCO)c2sc3nc(-c4ccco4)c4c(c3c2n1)CCC4		inconclusive: 9.13 µM [inhibitor, partial curve]
COc1cccc(=O)c2c(C)n(CC(=O)c3ccccc3)c(C)c12	inactive: 3.58%	
S=C(Nc1ccc2nsnc2c1)N1CCCC1		inconclusive: 40.8 µM [inhibitor, single point]

Compound	max response, negative = inhibition	Potency
CCn1ncc(Br)c1C(=O)Nc1ccc(C(=O)OC(C)C)cc1		inconclusive: 12.9 µM [inhibitor, partial curve]
Oc1ccc(NCc2cccc(OCc3ccc(F)cc3)c2)cc1		inconclusive: 20.4 µM [inhibitor, partial curve]
N#Cc1c(SCC(=O)Nc2nncs2)sc2c(O)cc(=O)[nH]c12		inconclusive: 20.4 µM [inhibitor, partial curve]
COc1ccc(-c2csc(NC(=O)CSc3nc(C)nc4sc(C(=O)O)c(C)c34)n2)cc1		active: 32.4 µM
O=C(CSc1nc(O)cc(=O)[nH]1)Nc1ccc2c(c1)CCC2	inactive: 3.44%	
CCOc1ccc(C(=O)Nc2ccc(-c3nc4ccccc4[nH]3)cc2)cc1[N+](=O)[O-]		inconclusive: 28.9 µM [inhibitor, partial curve, poor fit]
CCCCN1Cc2c(nc3cc(-c4ccco4)[nH]n3c2=O)C1=O	inactive: -5.55%	
Cc1cc(-c2ccco2)c(C#N)c2nc3ccccc3n12		inconclusive: 22.9 µM [inhibitor, single point]
O=c1c(-c2cc(F)cc(F)c2)nc2cnc(N3CCNCC3)nc2n1Cc1ccc(F)cc1		inconclusive: 45.7 µM [inhibitor, single point]
CN(CCC#N)C(=O)COC(=O)c1c2c(nc3ccccc13)/C(=C/c1ccco1)CC2		inconclusive: 4.57 µM [inhibitor, partial curve]
CN(Cc1ccccc1)C(=O)COC(=O)/C=C/c1ccco1	inactive: -5.94%	
S=C(Nc1cccc(Cl)c1)Nc1cccc2cnccc12		inconclusive: 16.2 µM [inhibitor, partial curve, poor fit]
O=C(O)C1=CC(=C(c2ccc(O)c(C(=O)O)c2)c2ccc(O)c(C(=O)O)c2)C=CC1=O		active: 1.36 µM and active: 10.8 µM
COc1ccc(OC)c(NC(=O)COC(=O)c2cc3c(s2)CCC3)c1		active: 18.2 µM
O=C(CSc1nnc2scc(-c3ccccc3)n12)Nc1nsc(-c2ccccc2)n1		active: 36.3 µM

Not a retest: two of the compounds above.
Compound	max response, negative = inhibition	Potency
S=C(Nc1ccc2nsnc2c1)N1CCCC1		inconclusive: 40.8 µM [inhibitor, single point]
CCn1ncc(Br)c1C(=O)Nc1ccc(C(=O)OC(C)C)cc1		inconclusive: 12.9 µM [inhibitor, partial curve]
